Our source for the binding signal values is publication PMC5996148.

Some test systems named below: HK1 (human); HKDC1 (human); HLA-B (human); HLA-DQA1 (human); HM13 (human); HMG20B (human); HN1 (human); HNT (human); HOOK3 (human); HPCA (human); HPCAL1 (human); HPCAL4 (human); HPGD (human); HPRT1 (human); HPS4 (human); HRASLS (human); HS2ST1 (human); HS3ST1 (human); HSBP1 (human).
Common to all, as to assay: protein microarray (ProtoArray v5.0), streptavidin-Alexa Fluor 647
Settings in all cases: 3'-biotin; 20 mM Tris (pH 7.5), 5 mM MgCl2, 100 mM KCl, 0.1% Tween-20, A/T-rich and random oligonucleotide blockers; temperature not stated; high values mean tight binding

In assay [1] the test system is HLA class I histocompatibility antigen, Cw-7 alpha chain (human).

Values joined by “and” are separate entries in the source; they are usually repeats but may differ in a detail not shown here. Equal entries are not always repeated. The list shows a part of the results.

On to “GGGAGGCTGAGGCAGG [G4-1 biotinylated (PQS2)]”, for which the binding signal in the assay on HK1 (human) is -0.344 z-score; with HKDC1 (human), -0.334 z-score; in [1], -0.336 z-score; with HLA-B (human), -0.284 z-score; in the assay on HLA-DQA1 (human), -0.316 z-score; in the assay on HM13 (human) it was -0.262 z-score. The binding signal was -0.321 z-score with HMG20B (human); -0.339 z-score and -0.343 z-score in the assay on HN1 (human); -0.272 z-score in the assay with HNT (human); -0.287 z-score with HOOK3 (human); -0.328 z-score with HPCA (human); -0.357 z-score with HPCAL1 (human). Moreover, the binding signal is -0.304 z-score with HPCAL4 (human); -0.343 z-score in the assay on HPGD (human); -0.34 z-score in the assay with HPRT1 (human); -0.262 z-score in the assay with HPS4 (human); -0.273 z-score with HRASLS (human); -0.334 z-score in the assay with HS2ST1 (human). Also, the binding signal in the assay with HS3ST1 (human) is -0.347 z-score and -0.342 z-score; in the assay with HSBP1 (human), -0.347 z-score.
